Data on 67 molecules can be found in PubChem BioAssay AID662 (National Center for Advancing Translational Sciences (NCATS), 2007).

The other results are listed elsewhere or left out. Shown are side measurements of this screen, not its main read-out; they come without a call. Compounds called inactive in the main read-out are mostly missing here. Words in brackets tell the shape of the fitted curve; partial curves, single points and poor fits give uncertain potencies.

The experiment in a line: Cell signaling CRE-BLA (Fsk stim). The note with it: CHO CRE-bla reporter (cAMP response element driving beta-lactamase), forskolin EC10, beta-lactamase ratio; measured here: 460 nm blue channel. The essentials: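 AC50 values, positive or negative, reflect shifts in EC10 NKH 477-induced CRE-bla reporter activity in CHO cells. Incubation lasted 3 h at 37 °C before CCF4 substrate (2 h, room temperature) and ratiometric 460/530 nm reading.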
What is called AC50 is the concentration at which the activity in the assay is half-maximal. For `Cc1nc(NCCNC(=O)c2ccco2)c2c(C)c(C)sc2n1`, the AC50 was 2 µM [rising, partial curve].

Consider `CN1CCN(c2ncnc3ccc(-c4cccc(NS(C)(=O)=O)c4)cc23)CC1`, for which the AC50 is 6.31 µM [rising, full curve]. The figure for `Cc1cc(C)nc(-n2nc(C)c(C3(O)C(=O)Nc4ccccc43)c2N)n1` (configuration not stated) is 0.00316 µM [falling, full curve, poor fit]; for `O=[n+]1c2c(n([O-])c3c1CCCC3)CCCC2` it is 0.00794 µM [falling, full curve, poor fit]. `O=C(CCCCCNc1nc(=S)[nH]c2ccccc12)N1CCN(c2ccccn2)CC1`: the AC50 was 0.501 µM [falling, partial curve]. `Clc1cc(Cl)c(OCc2nc(-c3ccccn3)no2)cc1Cl`: the concentration at half-maximal activity (AC50) is 15.8 µM [rising, single point]. As to `COc1cccc(C2CC(c3c(F)cccc3Cl)n3nc(N)nc3N2)c1` (configuration not stated), the AC50 was 0.0158 µM [falling, full curve, poor fit].

As for `O=C(O)C1CCCN1c1ncccn1` (configuration not stated), the AC50 is 0.398 µM [falling, partial curve]. The figure for `COc1cc2c(cc1OC)-c1cc(=Nc3c(C)cc(C)cc3C)n(C)c(=O)n1CC2` is 2 µM [rising, full curve]; for `N#CCCn1c(=O)c(-c2cccs2)nc2cnc(N3CCOCC3)nc21` it is 5.01 µM [rising, partial curve].

For the molecule `Cn1c(CN2CCC(C(N)=O)CC2)c(C#N)c2ccccc21`, the AC50 was 3.98 µM [falling, partial curve, poor fit]. Regarding `COc1ccc2[nH]cc(C(=O)CN3CCN(C(=O)c4ccco4)CC3)c2c1`, the AC50 is 3.98 µM [falling, full curve, poor fit]. The figure for `CC(C)Cn1c(N)c(C(=O)NCC2CCCO2)c2nc3ccccc3nc21` (configuration not stated) is 10 µM [rising, partial curve].

Turning to `COc1ccc(-c2nc3cnc(Oc4ccccc4)nc3n(Cc3cccs3)c2=O)cc1`, the AC50 was 3.98 µM [rising, full curve]. Consider `Nc1nc(-c2ccco2)nc(N2CCCCC2)n1`, for which the AC50 is 12.6 µM [rising, single point]. Turning to `COc1cccc(CN(Cc2cccnc2)S(=O)(=O)c2ccc(-n3cnnn3)c(C)c2)c1OC`, the AC50 was 0.00316 µM [falling, full curve, poor fit]. The result for `CCOC(=O)C1CCN(C(=O)C2CCN(S(=O)(=O)CC)CC2)CC1` reads 0.00398 µM [falling, full curve, poor fit]. Regarding `CC(C)(C)n1ncc2c(=O)n(CC(=O)OCc3ccccc3)cnc21`, the AC50 is 25.1 µM [rising, single point].

Consider `Cc1ccc(Cl)cc1N1CCN(C(=O)c2cc3c(=O)n(C)c4ccccc4c3n2C)CC1`, for which the AC50 was 5.01 µM [falling, single point]. Turning to `N#CC1=C(N)S[C@H](C(=O)C23CC4CC(CC(C4)C2)C3)[C@H]1c1ccncc1`, the AC50 is 0.158 µM [rising, full curve]. Turning to `O=C1[C@@H]2C(Cc3ccc(O)cc3)NC3(C(=O)Nc4ccc(F)cc43)[C@@H]2C(=O)N1c1ccccc1` (some centres not stated), the AC50 is 2.51 µM [falling, partial curve]. The figure for `Cn1c(=O)c2c(nc(N3CCCCC3)n2CCNC2=NCCC2)n(C)c1=O` is 7.94 µM [falling, partial curve]. Turning to `CCOC(=O)N1CCN(C(=O)C(NC(=O)C2CCC(C)CC2)C(C)C)CC1` (configuration not stated), the AC50 was 0.398 µM [falling, partial curve]. `CCN(CC)C(=O)c1sc(NC(=O)c2ccoc2C)c(C(=O)OC)c1C`: the AC50 is 12.6 µM [rising, partial curve]. The result for `Cn1c(=O)c2c(nc(Br)n2CCSc2nnnn2-c2ccccc2)n(C)c1=O` reads 7.94 µM [rising, partial curve, poor fit]; that for `FC(F)(F)c1ccccc1-c1ccc2ncnc(NCCN3CCOCC3)c2c1`, 7.94 µM [rising, partial curve]; that for `COc1ccc(-c2nc3cnc(Nc4cccc(OC)c4)nc3n(C3CC3)c2=O)cc1`, 0.316 µM [rising, full curve]. The figure for `O=C(O)CCC(=O)c1ccc2ccc3cccc4ccc1c2c34` is 5.01 µM [rising, single point]; for `COc1cc2cc(C(c3nnnn3C3CCCCC3)N(C)C3CCCCC3)c(=O)[nH]c2cc1OC` (configuration not stated) it is 10 µM [rising, partial curve].

Take `CCOC(=O)C1C(=O)NCC2CCCC21` (configuration not stated): the AC50 was 3.16 µM [rising, single point]. The figure for `CCOC(=O)c1sc2nc3n(c(=O)c2c1C)CCC(C)CC3` (configuration not stated) is 0.2 µM [rising, full curve]; for `COc1ccc(-c2cc(C(F)(F)F)nc(SCC(=O)N3CC(C)OC(C)C3)n2)cc1OC` (configuration not stated) it is 0.631 µM [rising, partial curve].

As to `Cc1ccc(NC(=O)CN(C)c2ccc(S(=O)(=O)N3CCN(C)CC3)cn2)cc1`, the AC50 was 5.01 µM [falling, single point]. The figure for `COc1ccc(-c2noc(CSc3nnc(CCc4ccccc4)n3-c3ccccc3)n2)cc1OC` is 10 µM [rising, partial curve]. The figure for `CCCN1CC=C2C(C#N)=C(N)C(C#N)(C#N)C(c3cccc(OC)c3OC)C2C1` (configuration not stated) is 12.6 µM [rising, partial curve].

Regarding `Fc1ccc(C(OCCCc2cnc[nH]2)c2ccc(F)cc2)cc1`, the concentration at half-maximal activity (AC50) was 15.8 µM [falling, partial curve]. As for `O=c1c(-c2ccc(F)c(F)c2)nc2cncnc2n1Cc1ccccc1`, the half-maximal activity concentration (AC50) was 12.6 µM [rising, partial curve]. The figure for `COC(=O)CCC(=O)Oc1ccc(OC(=O)CCC(=O)OC)cc1` is 10 µM [falling, partial curve].

As to `NC(=O)c1ccc(-c2ccc(Br)cc2)o1`, the concentration at half-maximal activity (AC50) was 10 µM [rising, partial curve]. The figure for `COCCCn1c(=O)c2ccccc2c2ccccc2c1=O` is 31.6 µM [falling, single point]; for `Cc1nc2sc3c(c2c2nnc(SCC(=O)NCc4ccco4)n12)CCCC3` it is 12.6 µM [rising, partial curve]; for `Clc1ccc2c(c1)N=C(N1CCNCC1)c1ccccc1N2` it is 31.6 µM [falling, single point].

Take `CCOc1nc(-c2ccc(OC)cc2)ccc1-c1noc(-c2cc(OC)c(OC)c(OC)c2)n1`: the AC50 was 15.8 µM [rising, single point]. The result for `COc1ccc(-n2nc(C(=O)Nc3ccc4c(c3)OCO4)c3ccccc3c2=O)cc1` reads 3.16 µM [rising, partial curve]; that for `CC1=C(C(=O)OCCOC(C)C)C(c2cccnc2)C2=C(CCCC2=O)N1` (configuration not stated), 12.6 µM [rising, single point]. Turning to `Cc1cnc(C(=O)Nc2ccc(N3CCOCC3)cc2)cn1`, the half-maximal activity concentration (AC50) is 0.0501 µM [falling, partial curve, poor fit].

In the case of `COc1ccc(-c2cc(-c3cccs3)c(C#N)c(SCC(=O)NCc3ccco3)n2)cc1`, the half-maximal activity concentration (AC50) is 3.16 µM [rising, partial curve]. Turning to `Cc1cc(NS(=O)(=O)c2ccccc2)n(-c2ccccc2)n1`, the AC50 is 25.1 µM [rising, single point].

Consider `CCOC(=O)CSc1nnc(CSc2nc(C)cc(C)n2)n1Cc1ccco1`, for which the half-maximal activity concentration (AC50) is 0.0316 µM [falling, partial curve]. As for `Cc1cc(C)n(-c2nc(-c3cccc(Cl)c3)cs2)n1`, the AC50 was 1 µM [rising, partial curve]. The figure for `COC(=O)CSc1nc(N)c(C#N)c(C(C)C)c1C#N` is 25.1 µM [rising, single point]. `CCOC(=O)c1c2n(c3c(NCc4ccccc4)ncnc13)CCCC2`: the AC50 is 10 µM [rising, partial curve]. The figure for `c1cc2c(cc1-c1cnc3n1CCC3)OCCO2` is 7.94 µM [falling, partial curve]. The result for `CCCn1c(=O)c2[nH]c(-c3ccccc3)nc2n(CCC)c1=O` reads 0.398 µM [rising, full curve, poor fit]; that for `CCCCC[C@H](CC(=O)NO)C(=O)N[C@@H](C(=O)N1CCC[C@H]1CO)C(C)C`, 31.6 µM [rising, single point]. The result for `Cc1nn(-c2ccccc2)c2sc(C(=O)N3CCCCC3)cc12` reads 3.16 µM [rising, full curve]. For `CCOC(=O)c1ccc(NC(=O)CC2C(=O)N(c3ccc(F)cc3)C(=O)N2CCCOC)cc1` (configuration not stated), the AC50 is 0.631 µM [falling, full curve, poor fit]. Regarding `Cc1ccc(CNc2ncc(-c3ccc4c(c3)OCO4)n2C)cc1`, the AC50 was 0.398 µM [falling, full curve]. With `COC(=O)C1=C(C)N(CCC2=CCCCC2)C(=O)C1`, the AC50 was 12.6 µM [falling, single point].

For the molecule `CCSc1nc2c(c(=O)n1Cc1ccccc1)SC(C)C2` (configuration not stated), the AC50 is 10 µM [rising, single point]. The figure for `COC(=O)Cc1nc2ccccc2[nH]1` is 10 µM [rising, partial curve].

For the molecule `Cn1nnc2cc(C(=O)N3CCSCC3)ccc21`, the AC50 was 0.794 µM [rising, full curve]. The figure for `O=C(c1cc(-c2cccs2)on1)N1CCN(c2ccc(F)cc2)CC1` is 0.1 µM [falling, full curve]; for `COc1ccc(NC(=O)c2ccc(S(=O)(=O)N3CCOCC3)cc2)c(OC)c1` it is 3.16 µM [falling, single point]; for `Cn1c(=O)c2cc(S(=O)(=O)Nc3ccc4c(c3)OCO4)ccc2n(C)c1=O` it is 0.00316 µM [falling, full curve, poor fit]. In the case of `Cc1ccc(-c2nnc3n2N=C(c2ccccc2)CS3)cc1`, the AC50 was 5.01 µM [rising, partial curve]. The result for `N#CCC(=O)N1CCn2c1nc1ccccc12` reads 5.01 µM [falling, single point].
